According to patent US20040208866A1, “Methods of regulating body weight” (priority 2002, published 2004):
For at least one compound, name, drawing or mass did not settle the structure.

Test system: antral portion of the stomach
Assay: Gastrointestinal contractility: distance between transducing crystals on the antral stomach
Assay type: in vivo, Sprague-Dawley rats
Conditions: 10 ml of 1 mM applied topically to the stomach, anesthetized rats
Text: Two male Sprague-Dawley rats, approximately 12 weeks old (Harlan, Indianapolis, Ind.) were anesthetized with urethane and their stomachs were exposed through a small abdominal incision. Two 2.4 mm transducing crystals (Sonometrics, Ontario, Canada) were placed on the antral portion of the stomach such that circular contractions could be monitored as a change in the distance between the two crystals. The crystals were attached with VETBOND TISSUE ADHESIVE (3M, St. Paul, Minn.). […] The amplitude of the NE-induced decrease was approximately 50% of the acetylcholine-induced increase in distance. Both responses were transient. A negative control of […] of phosphate buffer solution (PBS) applied topically between the crystals had no effect. A 14 amino acid zsig33 peptide (zsig33-1, as shown in Example 4) was dissolved in PBS and […] was applied topically for a final concentration of 1 μg, 10 μg or 100 μg.

CC(=O)OCC[N+](C)(C)C [acetylcholine]
change in distance between the two crystals: rapid, but transient increase in the distance between two crystals
